Laboratory results published in PMC5110995.

Sequences of proteins named here, by UniProt entry; tags and fusion partners are left off. A change or cut given only in a name is not applied to a line headed by its entry.
UniProt Q6PQQ3: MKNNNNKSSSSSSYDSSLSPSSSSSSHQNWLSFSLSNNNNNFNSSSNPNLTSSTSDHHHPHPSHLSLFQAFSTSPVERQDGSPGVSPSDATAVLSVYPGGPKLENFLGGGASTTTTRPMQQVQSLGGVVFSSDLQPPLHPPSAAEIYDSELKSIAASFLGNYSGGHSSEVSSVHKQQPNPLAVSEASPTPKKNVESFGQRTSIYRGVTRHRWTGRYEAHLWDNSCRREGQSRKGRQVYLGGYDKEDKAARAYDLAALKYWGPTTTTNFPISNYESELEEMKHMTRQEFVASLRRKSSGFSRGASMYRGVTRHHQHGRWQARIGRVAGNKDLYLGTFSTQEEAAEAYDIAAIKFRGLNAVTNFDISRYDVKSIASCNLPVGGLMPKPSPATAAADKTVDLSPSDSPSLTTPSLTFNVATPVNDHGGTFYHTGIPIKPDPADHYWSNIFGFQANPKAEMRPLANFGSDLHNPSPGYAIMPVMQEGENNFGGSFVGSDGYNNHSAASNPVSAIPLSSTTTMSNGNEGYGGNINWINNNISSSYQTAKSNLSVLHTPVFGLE

Key:
[1] = biological target: T1, ETTIN (ETT)/ARF3 fused to the GAL4 DNA-binding domain (ETT-BD) (Arabidopsis) (UniProt O23661); test: two-hybrid; yeast AH109, 28°C, cotransformation; YSD lacking Leu, Trp, adenine and His with 1, 2.5 and 5 mM 3-AT; no IAA (ETT-IND also with NAA or 2,4-D in the medium)
T1 sequence: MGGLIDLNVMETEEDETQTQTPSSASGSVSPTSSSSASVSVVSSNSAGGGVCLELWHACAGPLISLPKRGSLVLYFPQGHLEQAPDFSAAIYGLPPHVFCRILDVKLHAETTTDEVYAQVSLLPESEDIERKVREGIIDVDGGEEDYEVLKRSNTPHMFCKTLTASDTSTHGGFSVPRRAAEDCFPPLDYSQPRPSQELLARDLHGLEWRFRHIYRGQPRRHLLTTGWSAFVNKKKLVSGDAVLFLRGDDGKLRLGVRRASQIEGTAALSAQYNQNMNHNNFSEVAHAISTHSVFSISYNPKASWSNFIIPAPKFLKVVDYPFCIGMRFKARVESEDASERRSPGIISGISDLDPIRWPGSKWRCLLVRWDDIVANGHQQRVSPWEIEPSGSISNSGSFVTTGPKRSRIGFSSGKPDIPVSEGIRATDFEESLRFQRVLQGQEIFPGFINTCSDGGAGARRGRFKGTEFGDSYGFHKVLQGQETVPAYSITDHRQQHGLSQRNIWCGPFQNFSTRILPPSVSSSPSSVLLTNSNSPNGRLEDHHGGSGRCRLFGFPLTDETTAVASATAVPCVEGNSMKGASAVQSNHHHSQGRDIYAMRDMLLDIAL

[2] = biological target: T1, ETTIN (ETT)/ARF3 fused to the GAL4 DNA-binding domain (ETT-BD) (Arabidopsis); test: two-hybrid; as a2, with IAA (dissolved in ethanol) added to the medium

binding [1]	binding [2]	Substance
binds	–	PLETHORA5 (PLT5) fused to the AD domain (from UniProt Q6PQQ3)
binds	binds	IND^D30G fused to the GAL4 activation domain (Arabidopsis)

These are yes or no findings as the source states them, for the method shown. Binding can be weak; no strength is given. Where a sequence is shown, tags or fusion partners need not be part of it.
